{"source": "paper PMC7819943", "about": "“Rice protein-binding microarrays: a tool to detect cis-acting elements near promoter regions in rice”", "note": "The list shows a part of the results."}
{"biological_target": "T1, OsSMF1 (Oryza sativa, UniProt Q6ZLB0 1-436)", "T1 sequence": "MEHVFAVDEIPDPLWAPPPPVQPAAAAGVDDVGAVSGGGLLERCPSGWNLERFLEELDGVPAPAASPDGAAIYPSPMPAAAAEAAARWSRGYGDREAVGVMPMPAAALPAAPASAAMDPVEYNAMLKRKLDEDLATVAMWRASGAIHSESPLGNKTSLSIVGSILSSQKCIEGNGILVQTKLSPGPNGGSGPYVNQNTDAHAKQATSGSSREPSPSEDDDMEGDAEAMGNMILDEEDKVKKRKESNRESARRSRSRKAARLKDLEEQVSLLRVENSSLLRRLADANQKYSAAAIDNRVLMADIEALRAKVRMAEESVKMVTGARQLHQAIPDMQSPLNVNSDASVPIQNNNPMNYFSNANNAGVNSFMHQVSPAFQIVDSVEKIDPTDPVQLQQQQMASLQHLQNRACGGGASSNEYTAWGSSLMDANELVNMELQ", "assay": "protein-binding microarray (RPBM); PBS, 2% BSA, 51.3 ng/ul salmon testes DNA, 50 uM zinc acetate, 200 nM TF, 25 C, 1 h; high values mean tight binding", "settings": "protein: recombinant; tags: N-terminal polyhistidine and DsRed monomer fusion (pET32a); chain copies: 2; label: CyDye5-dUTP incorporated in the synthesized complementary strand; 3' TTTTT single-stranded linker to array surface; dsDNA, one strand shown", "outline": "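Using Ni–NTA, transcription factors fused N-terminally to polyhistidine and DsRed were purified after expression in E. coli BL21-CodonPlus. These were incubated at 200 nM with a blocked, double-stranded custom Agilent array for 1 h at 25 °C in a buffer containing 50 µM zinc acetate, and the array was washed. The binding signal is per-feature fluorescence intensity (arbitrary units) on an Axon 4000B scanner.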"}
{"sequence": "ACTGCAATTTTATTCACTCTGTGCGTGTCACATCTGGGTCCGGAGTCACCTAGTGCAG", "binding signal": "5320 fluorescence intensity (a.u.)"}
{"sequence": "GGAAGCCATTTCACGTTCGAATCTTATGTCAGCCAGCTTACGGAGTCACCTAGTGCAG", "binding signal": "3900 fluorescence intensity (a.u.)"}
{"sequence": "GGGCCGAACCTTGGGCCCACACGACAGATCGTGACAGCCGCGGAGTCACCTAGTGCAG", "binding signal": "3280 fluorescence intensity (a.u.)"}
{"sequence": "CTTAAACACTACCTAGTGTACAAGTCAGTACTACAGTACACGGAGTCACCTAGTGCAG", "binding signal": "3210 fluorescence intensity (a.u.)"}
{"sequence": "AATTTCACACGCAATATCTATCACACGTGTCAGTGATGCACGGAGTCACCTAGTGCAG", "binding signal": "18900 fluorescence intensity (a.u.)"}
{"sequence": "GGCTGTTCGAAATCAATATTGTTGTAGGTGACTGAACTAGCGGAGTCACCTAGTGCAG", "binding signal": "15100 fluorescence intensity (a.u.)"}
{"sequence": "CGCTGTTTCTTCGTACGTGGCTGTTTAGGCTCCTCAGAAACGGAGTCACCTAGTGCAG", "binding signal": "4710 fluorescence intensity (a.u.)"}
{"sequence": "AACCGGAGAGCGGTGACGCGGACGTGCCTGCCCAACGCAACGGAGTCACCTAGTGCAG", "binding signal": "5410 fluorescence intensity (a.u.)"}
{"sequence": "AATTACAGATTCCGTCAGAAAACTGTGAGACAGATTTATTCGGAGTCACCTAGTGCAG", "binding signal": "3290 fluorescence intensity (a.u.)"}
{"sequence": "GCATCTGCAGTGACACACAATTAGGTGAACTAACAACGTCCGGAGTCACCTAGTGCAG", "binding signal": "3890 fluorescence intensity (a.u.)"}
{"sequence": "CAGGTCGGACGTGTAGCGTAGCGTCCCTTTCCCATATTGACGGAGTCACCTAGTGCAG", "binding signal": "3720 fluorescence intensity (a.u.)"}
{"sequence": "CTTTGCACTGTTCGATTCATTCGTCACGGCACAAGAAACCCGGAGTCACCTAGTGCAG", "binding signal": "3390 fluorescence intensity (a.u.)"}
{"sequence": "TTGTCAGCTTCTACACGGACATATGTCACAGTGCTTCACGCGGAGTCACCTAGTGCAG", "binding signal": "3750 fluorescence intensity (a.u.)"}
{"sequence": "TTGGCTTCTTCAACTTACGTTACCCAATGCATTATATTTGCGGAGTCACCTAGTGCAG", "binding signal": "4300 fluorescence intensity (a.u.)"}
{"sequence": "TTGTCTCCCATGCCTATGTCATCCATACAACGTTACTTCACGGAGTCACCTAGTGCAG", "binding signal": "5610 fluorescence intensity (a.u.)"}
{"sequence": "CAGAATAATCATTTGTCATCAATGTGTGCTGTGTGGTGGTCGGAGTCACCTAGTGCAG", "binding signal": "3360 fluorescence intensity (a.u.)"}
{"sequence": "CATCTGCGAGGTCATCAAAACCCTACCCGAGCGGCCACACCGGAGTCACCTAGTGCAG", "binding signal": "3420 fluorescence intensity (a.u.)"}
{"sequence": "TACCCTTTGCCGACTGTTGGCGTGAAGGCAATTGTTTTGTCGGAGTCACCTAGTGCAG", "binding signal": "3140 fluorescence intensity (a.u.)"}
{"sequence": "TAGGGTGCCCATCAATTAGTTTGATTAATTACAAGGCAGCCGGAGTCACCTAGTGCAG", "binding signal": "5120 fluorescence intensity (a.u.)"}
{"sequence": "CCTCTCGCCGCCGCCGCCGCGCCATTGCCGGATTTCACCCCGGAGTCACCTAGTGCAG", "binding signal": "4120 fluorescence intensity (a.u.)"}
{"sequence": "GCAGGCAGATAAAACGTACACTCCACAGCTCACACCTTCCCGGAGTCACCTAGTGCAG", "binding signal": "3480 fluorescence intensity (a.u.)"}
{"sequence": "GTCGCACCTCGCAGCACACGCGTCAGCACCTCGACCCAACCGGAGTCACCTAGTGCAG", "binding signal": "7480 fluorescence intensity (a.u.)"}
{"sequence": "AAACAAGATCGTCGGCTCCCCGCCCTATCCACGAGTCCACCGGAGTCACCTAGTGCAG", "binding signal": "3210 fluorescence intensity (a.u.)"}
{"sequence": "CATTGCACAGGAAGCATGAAATTTAACTTCTGGAGTTTGGCGGAGTCACCTAGTGCAG", "binding signal": "18600 fluorescence intensity (a.u.)"}
{"sequence": "TCTTCTGAATGCTCACAATGACGCCATCCTCATCAGCCGCCGGAGTCACCTAGTGCAG", "binding signal": "4480 fluorescence intensity (a.u.)"}
{"sequence": "CACAACTAGAGCATGGAATTACACTATGGCTATGTTTAGACGGAGTCACCTAGTGCAG", "binding signal": "20900 fluorescence intensity (a.u.)"}
{"sequence": "TGACATGTGGGACCCACGTGGGTCCCTCGCTGACTCAGCCCGGAGTCACCTAGTGCAG", "binding signal": "17900 fluorescence intensity (a.u.)"}
{"sequence": "CTCATTTCGTGCAGTTGAGAAGCTCATCCAAACATCCATACGGAGTCACCTAGTGCAG", "binding signal": "3960 fluorescence intensity (a.u.)"}
{"sequence": "CTATGTGATGTGTATTTGTGAGTAGGACTACACAGCGAAACGGAGTCACCTAGTGCAG", "binding signal": "6020 fluorescence intensity (a.u.)"}
{"sequence": "AAGCATCATCACTGTCGCTGTCATCAATCATTGTCACTTACGGAGTCACCTAGTGCAG", "binding signal": "4630 fluorescence intensity (a.u.)"}
{"sequence": "AGATGCAATATGTGTATGACAGGTGAGACCATATATTAACCGGAGTCACCTAGTGCAG", "binding signal": "25000 fluorescence intensity (a.u.)"}
{"sequence": "CGGATCAAACTGATCAACGACAGATAGTTATGCCACGTCACGGAGTCACCTAGTGCAG", "binding signal": "15700 fluorescence intensity (a.u.)"}
{"sequence": "TCCTCGCCGACGACGGCTTTCCCCTCACGCTCTCCCGTACCGGAGTCACCTAGTGCAG", "binding signal": "3590 fluorescence intensity (a.u.)"}
{"sequence": "AAGAACTAGTGTAGCAAGGACAACAATGCCAAGAGCAAAACGGAGTCACCTAGTGCAG", "binding signal": "10000 fluorescence intensity (a.u.)"}
{"sequence": "CCGTCACGGATGACACTTATCTGTGACGGGCTATAGTTGACGGAGTCACCTAGTGCAG", "binding signal": "4260 fluorescence intensity (a.u.)"}
{"sequence": "TGCTTCTCCAAGAACTCGCTCTGCCGCGAGCTTCTGCAGTCGGAGTCACCTAGTGCAG", "binding signal": "3610 fluorescence intensity (a.u.)"}
{"sequence": "TAAATGGGGTAGGTAAAGAAGATGACATTGATGAGATCAGCGGAGTCACCTAGTGCAG", "binding signal": "3510 fluorescence intensity (a.u.)"}
{"sequence": "AGAGGGCGTGTACTCGTGACATCGTGTGTGTGCGTGTGCGCGGAGTCACCTAGTGCAG", "binding signal": "6670 fluorescence intensity (a.u.)"}
{"sequence": "TACAAATATTCAGACCGCTATGATTGGTGAATTTGTGGATCGGAGTCACCTAGTGCAG", "binding signal": "3660 fluorescence intensity (a.u.)"}
{"sequence": "GAAAGAAGAGATCGGGAATAACAAATAAGCTCAGATATATCGGAGTCACCTAGTGCAG", "binding signal": "5780 fluorescence intensity (a.u.)"}
{"sequence": "GATAATCCGATATCACTCTCGCCACGCCAGACGCCACCTACGGAGTCACCTAGTGCAG", "binding signal": "7800 fluorescence intensity (a.u.)"}
{"sequence": "GAGAGAGAGAGGGGACCAACTGAAAAGAGAGAGAAGCTAGCGGAGTCACCTAGTGCAG", "binding signal": "31200 fluorescence intensity (a.u.)"}
